Whole data set: some 33,000 sequences, median “E-score (-0.5 to 0.5)” near -0.0034, cut for the highest 2% near 0.25. Some of the results follow.
Each sequence was assayed against T1, Yap3 (UniProt P38749) (assay: PBM E-score (8-mer binding enrichment) (E-score (-0.5 to 0.5)); higher = stronger / more preferred TF binding). Conditions: protein concentration: 100 nM; construct: GST-full length.
T1 sequence: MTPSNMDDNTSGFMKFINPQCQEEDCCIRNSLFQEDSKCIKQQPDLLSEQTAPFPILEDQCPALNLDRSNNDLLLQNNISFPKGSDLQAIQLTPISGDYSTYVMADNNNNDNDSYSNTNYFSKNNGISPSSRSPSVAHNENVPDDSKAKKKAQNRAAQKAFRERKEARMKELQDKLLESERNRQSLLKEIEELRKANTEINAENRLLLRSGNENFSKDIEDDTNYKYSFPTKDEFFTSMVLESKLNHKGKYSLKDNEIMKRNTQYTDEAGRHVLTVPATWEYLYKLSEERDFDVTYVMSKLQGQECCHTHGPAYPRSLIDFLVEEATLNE
Method in brief: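 Masliner-normalised scans of fluorescent anti-GST signal were the basis for scoring. That signal came from GST-tagged yeast transcription factors applied at about 100-200 nM to double-stranded universal all-10-mer Agilent arrays on fresh or once-stripped slides. Each ungapped eight-base word, pooled with its reverse complement, received an E-score from the Universal PBM Analysis Suite.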
With TCAGAAAA the “PBM E-score” value was -0.0671. For CCCCTCTA, the “PBM E-score” value was -0.286. In the case of CCTGCTGA, the “PBM E-score” value is reported as 0.132. For AAGGTCAC, the “PBM E-score” value was -0.0209. With ACTTCTTC the “PBM E-score” value was 0.0436. For CTCTGCCC, the “PBM E-score” value was -0.0627. In the case of AAGGACTA, the “PBM E-score” value is reported as -0.136. For GCCAGGGC, the “PBM E-score” value was -0.324. AGCGGGCC was tested, and the “PBM E-score” value was -0.101. For CGCCCTCC, the “PBM E-score” value was -0.289. TACGGTGA was tested, and the “PBM E-score” value was 0.164. With CACCAGGA the “PBM E-score” value was -0.0124. AAGGTTGA was tested, and the “PBM E-score” value was 0.193. CCGAACAA was tested, and the “PBM E-score” value was 0.18. With CGTTCACA the “PBM E-score” value was 0.126. For CTCAGCAG, the “PBM E-score” value was -0.0565. In the case of ATTCAGGG, the “PBM E-score” value is reported as -0.018. CGCATTGA was tested, and the “PBM E-score” value was 0.125. In the case of CTCTGAAC, the “PBM E-score” value is reported as -0.0851. For CGGATGAC, the “PBM E-score” value was 0.0307. GAGTTTAA was tested, and the “PBM E-score” value was 0.217. With GACCCTAA the “PBM E-score” value was -0.136. With CGTATTAC the “PBM E-score” value was 0.231. CGCTTGAC was tested, and the “PBM E-score” value was -0.028. In the case of AAAAGACT, the “PBM E-score” value is reported as -0.114. In the case of AATGTCAT, the “PBM E-score” value is reported as 0.0551. GACGAGAC was tested, and the “PBM E-score” value was 0.0175. CGCTCTAA was tested, and the “PBM E-score” value was 0.00238. For CGCGACTA, the “PBM E-score” value was 0.0901. TATGTTAA was tested, and the “PBM E-score” value was 0.232. With GGCCCTGA the “PBM E-score” value was -0.14. GTGACGGA was tested, and the “PBM E-score” value was -0.0488. In the case of CAGCCGGG, the “PBM E-score” value is reported as -0.247. ATACAGCA was tested, and the “PBM E-score” value was 0.0699. In the case of TACTTGGA, the “PBM E-score” value is reported as 0.111. In the case of CAAGGAAA, the “PBM E-score” value is reported as 0.103. In the case of ATCGGACG, the “PBM E-score” value is reported as -0.0989. GGTGAAGA was tested, and the “PBM E-score” value was -0.0219. In the case of ACTAGCGG, the “PBM E-score” value is reported as -0.124. In the case of GTTTTCCA, the “PBM E-score” value is reported as 0.213. With ATGCTCCC the “PBM E-score” value was -0.137. In the case of TAGAGTCA, the “PBM E-score” value is reported as -0.25. ACCTTTCC was tested, and the “PBM E-score” value was 0.0396. For ATTAGTTC, the “PBM E-score” value was 0.118. With CCCACTCG the “PBM E-score” value was -0.298. With CGAGGGGC the “PBM E-score” value was -0.341. CATATATG was tested, and the “PBM E-score” value was 0.126. CGCAGGAC was tested, and the “PBM E-score” value was -0.149. CGCCAATC was tested, and the “PBM E-score” value was 0.0304. For ACCGTCAG, the “PBM E-score” value was -0.111. In the case of CAAACTCA, the “PBM E-score” value is reported as 0.133. With TAGGGCCA the “PBM E-score” value was -0.122. For AAAAGTTG, the “PBM E-score” value was 0.0288. TAGGCTGA was tested, and the “PBM E-score” value was 0.0209. With AGACTTAT the “PBM E-score” value was -0.0527. GCACCCGA was tested, and the “PBM E-score” value was -0.172. In the case of AACGTGCT, the “PBM E-score” value is reported as -0.0425. For AAATAATA, the “PBM E-score” value was 0.307. For AGTATGCG, the “PBM E-score” value was -0.09. CCCCGCCA was tested, and the “PBM E-score” value was 0.0511. With AGGCGTCG the “PBM E-score” value was -0.00776. With CAGTTATG the “PBM E-score” value was 0.161. AGCAGGGG was tested, and the “PBM E-score” value was -0.224. ATGGTGCC was tested, and the “PBM E-score” value was -0.196. ACCAACGG was tested, and the “PBM E-score” value was -0.22. With AGCGGTTG the “PBM E-score” value was -0.0583. CGGCAGAC was tested, and the “PBM E-score” value was -0.254. In the case of TAAATACA, the “PBM E-score” value is reported as 0.192. With TCGTGAAA the “PBM E-score” value was -0.11. For GGACCCGA, the “PBM E-score” value was -0.136. In the case of GTGACAAA, the “PBM E-score” value is reported as 0.116. With AACCTTAG the “PBM E-score” value was -0.172. AACTCTCG was tested, and the “PBM E-score” value was 0.00885. With TGTGCTAA the “PBM E-score” value was 0.0881. With GGACTTTA the “PBM E-score” value was -0.208. With AGCGGCTG the “PBM E-score” value was -0.159. For GAAAGGGA, the “PBM E-score” value was -0.17. In the case of GCACTAAC, the “PBM E-score” value is reported as 0.0358. For CACAGTCC, the “PBM E-score” value was -0.14. For AATTTTGT, the “PBM E-score” value was 0.145. With AGCACGAC the “PBM E-score” value was -0.0788. In the case of ATCCTGGC, the “PBM E-score” value is reported as 0.00893. With AATTCAGC the “PBM E-score” value was 0.006. With CTGTGCTC the “PBM E-score” value was 0.118. In the case of GAACTCAA, the “PBM E-score” value is reported as -0.127. With CGACTTGA the “PBM E-score” value was 0.0954.

From the supplement of paper PMC3334620
